According to paper doi:10.1101/2022.05.31.494111:
These are yes or no findings as the source states them, for the method shown. Some entries that bind do so weakly or less than the wild type.

B1: human IFT22 (protein, UniProt Q9H7X7 1-185)
chain: MLKAKILFVGPCESGKTVLANFLTESSDITEYSPTQGVRILEFENPHVTSNNKGTGCEFELWDCGGDAKFESCWPALMKDAHGVVIVFNADIPSHRKEMEMWYSCFVQQPSLQDTQCMLIAHHKPGSGDDKGSLSLSPPLNKLKLVHSNLEDDPEEIRMEFIKYLKSIINSMSESRDREEMSIMT
B2: human RabL2B (protein, UniProt Q9UNT1 1-228)
chain: MAEDKTKPSELDQGKYDADDNVKIICLGDSAVGKSKLMERFLMDGFQPQQLSTYALTLYKHTATVDGRTILVDFWDTAGQERFQSMHASYYHKAHACIMVFDVQRKVTYRNLSTWYTELREFRPEIPCIVVANKIDDINVTQKSFNFAKKFSLPLYFVSAADGTNVVKLFNDAIRLAVSYKQNSQDFMDEIFQELENFSLEQEEEDVPDQEQSSSIETPSEEAASPHS
B3: human IFT27/25 heterodimer (complex, UniProt Q9BW83 1-186; Q9Y547 1-144)
chain 1: MVKLAAKCILAGDPAVGKTALAQIFRSDGAHFQKSYTLTTGMDLVVKTVPVPDTGDSVELFIFDSAGKELFSEMLDKLWESPNVLCLVYDVTNEESFNNCSKWLEKARSQAPGISLPGVLVGNKTDLAGRRAVDSAEARAWALGQGLECFETSVKEMENFEAPFHCLAKQFHQLYREKVEVFRALA
chain 2: MRKIDLCLSSEGSEVILATSSDEKHPPENIIDGNPETFWTTTGMFPQEFIICFHKHVRIERLVIQSYFVQTLKIEKSTSKEPVDFEQWIEKDLVHTEGQLQNEEIVAHDGSATYLRFIIVSAFDHFASVHSVSAEGTVVSNLSS

How the values were obtained:
[1] = biological target: T1, human IFT81/74 heterodimer (human) (UniProt Q8WYA0); test: SEC
T1 sequence 1: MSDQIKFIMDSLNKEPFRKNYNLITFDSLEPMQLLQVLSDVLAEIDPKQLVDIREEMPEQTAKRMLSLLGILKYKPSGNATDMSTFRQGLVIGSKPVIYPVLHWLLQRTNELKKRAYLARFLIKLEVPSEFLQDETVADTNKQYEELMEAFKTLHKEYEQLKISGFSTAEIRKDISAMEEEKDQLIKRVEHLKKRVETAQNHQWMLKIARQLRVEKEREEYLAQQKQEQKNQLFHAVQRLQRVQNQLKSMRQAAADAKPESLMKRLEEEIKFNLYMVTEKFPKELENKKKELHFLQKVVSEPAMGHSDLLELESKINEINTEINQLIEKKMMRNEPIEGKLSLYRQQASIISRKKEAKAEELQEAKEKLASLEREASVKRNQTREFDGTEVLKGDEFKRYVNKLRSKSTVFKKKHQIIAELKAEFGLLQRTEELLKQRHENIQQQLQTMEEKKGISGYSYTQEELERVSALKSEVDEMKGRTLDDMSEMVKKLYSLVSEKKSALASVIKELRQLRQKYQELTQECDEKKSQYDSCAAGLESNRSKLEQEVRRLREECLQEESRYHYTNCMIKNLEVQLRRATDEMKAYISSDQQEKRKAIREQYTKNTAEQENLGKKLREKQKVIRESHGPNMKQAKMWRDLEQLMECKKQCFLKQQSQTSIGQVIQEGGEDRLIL
T1 sequence 2: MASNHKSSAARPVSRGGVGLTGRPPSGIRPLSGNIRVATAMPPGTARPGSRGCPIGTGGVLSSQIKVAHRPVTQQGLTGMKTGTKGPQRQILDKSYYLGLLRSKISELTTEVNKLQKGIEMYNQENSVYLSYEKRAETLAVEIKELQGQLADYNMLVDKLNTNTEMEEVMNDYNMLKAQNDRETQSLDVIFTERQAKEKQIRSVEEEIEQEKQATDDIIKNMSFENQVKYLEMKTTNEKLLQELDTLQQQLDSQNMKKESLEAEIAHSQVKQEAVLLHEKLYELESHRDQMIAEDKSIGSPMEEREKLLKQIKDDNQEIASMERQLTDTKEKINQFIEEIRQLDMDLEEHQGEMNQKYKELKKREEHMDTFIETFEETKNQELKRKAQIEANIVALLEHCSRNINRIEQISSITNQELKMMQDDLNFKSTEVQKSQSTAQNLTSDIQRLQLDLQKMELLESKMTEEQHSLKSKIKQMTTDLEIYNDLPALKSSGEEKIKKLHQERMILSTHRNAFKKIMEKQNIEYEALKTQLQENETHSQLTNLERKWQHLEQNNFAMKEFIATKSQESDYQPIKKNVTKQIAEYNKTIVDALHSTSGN

[2] = biological target: T2, human IFT-B1 pentamer HsIFT81/74/27/25/22 (human) (UniProt Q8WYA0+Q96LB3+Q9BW83+Q9Y547+Q9H7X7); test: SEC
[3] = biological target: T2, human IFT-B1 pentamer HsIFT81/74/27/25/22 (human); test: cross-linking

Binder | binding [1] | binding [2] | binding [3]
B1 | binds |  | 
B2 |  | binds | binds
B3 | binds |  | 
